{"source": "the supplement of paper PMC11542785", "test_system": "Drosophila melanogaster DPAGT1 (Alg7) RNAi eye model", "experiment": "eye size Z-score vs DMSO-treated DPAGT1 model flies; higher = larger eye (suppression of DPAGT1 phenotype)", "conditions": "5 uM", "note": "Where a name gives a salt, the structure may show the parent alone. Some of the results follow. Repeats are few or missing, and single values can be far off."}
{"smiles": "O=C1c2ccccc2S(=O)(=O)N1CCCCN1CCN(c2ncccn2)CC1", "note": "[Ipsapirone]", "values": [{"measurement": "eye size Z-score", "value": -0.03}]}
{"smiles": "Cn1c([N+](=O)[O-])cnc1COC(N)=O", "note": "[Ronidazole]", "values": [{"measurement": "eye size Z-score", "value": 0.04}]}
{"smiles": "COc1ccc(C(=O)NCc2ccc(OCCN(C)C)cc2)cc1OC", "note": "[Itopride]", "values": [{"measurement": "eye size Z-score", "value": 0.01}]}
{"smiles": "N[C@@H](C(=O)N[C@@H]1C(=O)N2C(C(=O)O)=C(Cl)CS[C@H]12)c1ccccc1", "note": "[Cefaclor hydrate]", "values": [{"measurement": "eye size Z-score", "value": 0.28}]}
{"smiles": "CC(Oc1ccccc1)C(=O)N[C@@H]1C(=O)N2[C@@H]1SC(C)(C)[C@@H]2C(=O)O", "note": "(stereo not given in full) [Phenethicillin potassium salt]", "values": [{"measurement": "eye size Z-score", "value": 0.83}]}
{"smiles": "Brc1c(NC2=NCCN2)ccc2nccnc12", "note": "[Brimonidine L-tartrate]", "values": [{"measurement": "eye size Z-score", "value": 0.46}]}
{"smiles": "CN(C)CCOC(=O)COc1ccc(Cl)cc1", "note": "[Meclofenoxate hydrochloride]", "values": [{"measurement": "eye size Z-score", "setting": "female", "value": 0.11}]}
{"smiles": "CCCc1nc(C(C)(C)O)c(C(=O)O)n1Cc1ccc(-c2ccccc2-c2nnn[nH]2)cc1", "note": "[Olmesartan]", "values": [{"measurement": "eye size Z-score", "value": -0.51}]}
{"smiles": "Cc1ccc2c(Cl)cc(Cl)c(O)c2n1", "note": "[Chlorquinaldol]", "values": [{"measurement": "eye size Z-score", "value": 0.31}]}
{"smiles": "N=C(N)N/N=C/c1c(Cl)cccc1Cl", "note": "[Guanabenz acetate]", "values": [{"measurement": "eye size Z-score", "value": -0.35}]}
{"smiles": "OC(CCN1CCCCC1)(c1ccccc1)C1CCCCC1", "note": "(stereo not given) [Trihexyphenidyl-D,L hydrochloride]", "values": [{"measurement": "eye size Z-score", "value": -0.36}]}
{"smiles": "CC1(C)S[C@@H]2[C@H](NC(=O)C(c3ccccc3)S(=O)(=O)O)C(=O)N2[C@H]1C(=O)O", "note": "(stereo not given in full) [Sulbenicillin sodium salt]", "values": [{"measurement": "eye size Z-score", "value": -0.46}]}
{"smiles": "CN(CCOc1ccc(CC2SC(=O)NC2=O)cc1)c1ccccn1", "note": "(stereo not given) [Rosiglitazone hydrochloride]", "values": [{"measurement": "eye size Z-score", "value": -0.22}]}
{"smiles": "CCC(=O)OCC(=O)[C@@]1(OC(=O)CC)[C@H](C)C[C@H]2[C@H]3[C@H]([C@@H](O)C[C@@]21C)[C@@]1(C)C=CC(=O)C=C1C[C@H]3Cl", "note": "[Alclometasone dipropionate]", "values": [{"measurement": "eye size Z-score", "value": -0.05}]}
{"smiles": "COc1ccc(C[C@@H]2c3cc(OC)c(OC)cc3CC[N@+]2(C)CCC(=O)OCCCCCOC(=O)CC[N@@+]2(C)CCc3cc(OC)c(OC)cc3[C@H]2Cc2ccc(OC)c(OC)c2)cc1OC", "note": "[Cisatracurium besylate]", "values": [{"measurement": "eye size Z-score", "value": 0.6}]}
{"smiles": "Nc1cc(-c2ccncc2)c[nH]c1=O", "note": "[Amrinone]", "values": [{"measurement": "eye size Z-score", "value": 0.1}]}
{"smiles": "CC(N)C12CC3CC(CC(C3)C1)C2", "note": "(stereo not given) [Rimantadine hydrochloride]", "values": [{"measurement": "eye size Z-score", "value": 0.37}]}
{"smiles": "N#Cc1ccc(Oc2ccc3c(c2)COB3O)cc1", "note": "[Crisaborole]", "values": [{"measurement": "eye size Z-score", "value": 0.68}]}
{"smiles": "OCCOCCN1CCN(C(c2ccccc2)c2ccc(Cl)cc2)CC1", "note": "(stereo not given) [Hydroxyzine dihydrochloride]", "values": [{"measurement": "eye size Z-score", "value": -0.58}]}
{"smiles": "C=CC1=C(C(=O)O)N2C(=O)[C@@H](NC(=O)/C(=N\\OCC(=O)O)c3csc(N)n3)[C@H]2SC1", "note": "[Cefixime]", "values": [{"measurement": "eye size Z-score", "value": 0.14}]}
